The experiment addresses T1, Alk5 (TGFβR1) (not stated (endogenous in ECs; mouse ECs and bovine aortic ECs are used in the paper)) (UniProt Q64729).
T1 sequence: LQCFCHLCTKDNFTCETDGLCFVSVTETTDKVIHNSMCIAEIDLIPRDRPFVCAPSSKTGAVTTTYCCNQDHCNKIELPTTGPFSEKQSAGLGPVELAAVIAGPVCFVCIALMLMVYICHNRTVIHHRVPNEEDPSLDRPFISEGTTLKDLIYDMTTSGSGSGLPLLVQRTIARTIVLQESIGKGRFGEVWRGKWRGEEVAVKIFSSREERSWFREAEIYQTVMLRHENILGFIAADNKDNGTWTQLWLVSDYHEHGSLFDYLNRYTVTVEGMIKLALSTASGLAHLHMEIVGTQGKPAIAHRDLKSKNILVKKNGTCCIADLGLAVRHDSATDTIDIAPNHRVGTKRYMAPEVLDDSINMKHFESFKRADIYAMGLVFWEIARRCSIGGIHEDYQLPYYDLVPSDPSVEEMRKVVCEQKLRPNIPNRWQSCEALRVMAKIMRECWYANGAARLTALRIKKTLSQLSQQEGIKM
Kind of experiment: co-IP; endogenous Alk5 immunoprecipitated from precleared lysates of ECs exposed to acute shear stress, with antibody coupled to protein A/G plus sepharose beads, 2 hours at 4°C, three washes with lysis buffer; Western blot for Shc; nonspecific IgG as control. A general note: A western blot detects proteins with antibodies after separation by electrophoresis.

The results in this text go back to PMC8270486.

No constants are given. Whether binding was seen depends on the method and setting. In cells and extracts the contact can be indirect. Some entries that bind do so weakly or less than the wild type.

B1: Src homology and collagen (Shc) (protein, UniProt P98083 1-579)
chain: MDLLPPKPKYNPLRNESLSSLEEGASGSTPPEELPSPSASSLGPILPPLPGDDSPTTLCSFFPRMSNLKLANPAGGRLGPKGEPGKAAEDGEGSAGAALRDSGLLPLLQDMNKLSGGGGRRTRVEGGQLGGEEWTRHGSFVNKPTRGWLHPNDKVMGPGVSYLVRYMGCVEVLQSMRALDFNTRTQVTREAISLVCEAVPGAKGATRRRKPCSRPLSSILGRSNLKFAGMPITLTVSTSSLNLMAADCKQIIANHHMQSISFASGGDPDTAEYVAYVAKDPVNQRACHILECPEGLAQDVISTIGQAFELRFKQYLRNPPKLVTPHDRMAGFDGSAWDEEEEEPPDHQYYNDFPGKEPPLGGVVDMRLREGAARPTLPSAQMSSHLGATLPIGQHAAGDHEVRKQMLPPPPCPGRELFDDPSYVNIQNLDKARQAGGGAGPPNPSLNGSAPRDLFDMKPFEDALRVPPPPQSMSMAEQLQGEPWFHGKLSRREAEALLQLNGDFLVRESTTTPGQYVLTGLQSGQPKHLLLVDPEGVVRTKDHRFESVSHLISYHMDNHLPIISAGSELCLQQPVDRKV
Regarding B1, the binding entry was “binds”.
